Assay results: paper PMC7873046, “Structure of the Complete Dimeric Human GDAP1 Core Domain Provides Insights into Ligand Binding and Clustering of Disease Mutations” (Frontiers in Molecular Biosciences, 2021)
Changes are numbered by the printed parent chain. Names and notes keep the numbering of the source. Results are given in words; binding and its absence hold for the method and conditions named. Some results given as binding are weak or reduced against the parent protein; the word gives no strength.

Legend:
[1] = molecular target: GDAP1∆303-358 Y29F (human) (UniProt Q8TB36); assay: SEC; Superdex 200 or Superdex 75 10/300 GL increase; 25 mM HEPES pH 7.5, 300 mM NaCl; two concentrations of each construct; mutants at 5 mg/ml; both purified
[2] = molecular target: GDAP1∆303-358 Y29E/C88A (human) (UniProt Q8TB36); assay: SEC-SAXS; 50 µL of protein at 8.5-10 mg/ml injected into BioSEC3-300 or Superdex 75 10/300 GL increase; 25 mM HEPES pH 7.5, 300 mM NaCl; +15 °C; GDAP1∆295-358 and GDAP1∆319-358 also with hexadecanedioic acid (HA), which gave a higher monomer fraction; both purified
full-length GDAP1L1 [3] = molecular target: full-length GDAP1L1 (UniProt Q96MZ0); assay: non-reducing SDS-PAGE; SEC eluates of purified proteins on a non-reducing gel (GDAP1L1 also on a reducing gel); shows the covalent (disulfide) dimer; both purified
full-length GDAP1L1 [4] = molecular target: full-length GDAP1L1 (UniProt Q96MZ0); assay: SEC-SAXS; 50 µL of protein at 8.5-10 mg/ml injected into BioSEC3-300 or Superdex 75 10/300 GL increase; 25 mM HEPES pH 7.5, 300 mM NaCl; +15 °C; GDAP1∆295-358 and GDAP1∆319-358 also with hexadecanedioic acid (HA), which gave a higher monomer fraction; both purified

B1: GDAP1∆303-358 Y29F (domain or fragment, human, UniProt Q8TB36 1-302, looked up)
chain: MAERQEEQRGSPPLRAEGKADAEVKLILFHWTHSFSSQKVRLVIAEKALKCEEHDVSLPLSEHNEPWFMRLNSTGEVPVLIHGENIICEATQIIDYLEQTFLDERTPRLMPDKESMYYPRVQHYRELLDSLPMDAYTHGCILHPELTVDSMIPAYATTRIRSQIGNTESELKKLAEENPDLQEAYIAKQKRLKSKLLDHDNVKYLKKILDELEKVLDQVETELQRRNEETPEEGQQPWLCGESFTLADVSLAVTLHRLKFLGFARRNWGNGKRPNLETYYERVLKRKTFNKVLGHVNNILIS
notes: Point mutant of m2, made by site-directed mutagenesis PCR; source: E. coli BL21 (DE3), purified (Ni-NTA, TEV cleavage, SEC); not shown: His6, N-terminal, cleaved
[1]
  binding: binds weakly

B2: GDAP1∆303-358 Y29E/C88A (domain or fragment, UniProt Q8TB36 1-302)
chain: B1 chain with F29E, C88A
[2]
  binding: no binding

B3: full-length GDAP1L1 (protein, UniProt Q96MZ0 1-367)
chain: MATPNNLTPTNCSWWPISALESDAAKPAEAPDAPEAASPAHWPRESLVLYHWTQSFSSQKVRLVIAEKGLVCEERDVSLPQSEHKEPWFMRLNLGEEVPVIIHRDNIISDYDQIIDYVERTFTGEHVVALMPEVGSLQHARVLQYRELLDALPMDAYTHGCILHPELTTDSMIPKYATAEIRRHLANATTDLMKLDHEEEPQLSEPYLSKQKKLMAKILEHDDVSYLKKILGELAMVLDQIEAELEKRKLENEGQKCELWLCGCAFTLADVLLGATLHRLKFLGLSKKYWEDGSRPNLQSFFERVQRRFAFRKVLGDIHTTLLSAVIPNAFRLVKRKPPSFFGASFLMGSLGGMGYFAYWYLKKKYI
full-length GDAP1L1 [3]
  binding: no binding
full-length GDAP1L1 [4]
  binding: no binding
